Measurements: PMC12054630
These are yes or no findings as the source states them, for the method shown. Binding seen in cells or lysates may run through a third protein. A yes stands for co-enrichment or nearness to the bait. Other partners may have been found.

Biological target: T1, Sorbin and SH3 Domain Containing 2 (SORBS2), mouse heart (mouse (endogenous in mouse heart)) (UniProt Q3UTJ2)
T1 sequence: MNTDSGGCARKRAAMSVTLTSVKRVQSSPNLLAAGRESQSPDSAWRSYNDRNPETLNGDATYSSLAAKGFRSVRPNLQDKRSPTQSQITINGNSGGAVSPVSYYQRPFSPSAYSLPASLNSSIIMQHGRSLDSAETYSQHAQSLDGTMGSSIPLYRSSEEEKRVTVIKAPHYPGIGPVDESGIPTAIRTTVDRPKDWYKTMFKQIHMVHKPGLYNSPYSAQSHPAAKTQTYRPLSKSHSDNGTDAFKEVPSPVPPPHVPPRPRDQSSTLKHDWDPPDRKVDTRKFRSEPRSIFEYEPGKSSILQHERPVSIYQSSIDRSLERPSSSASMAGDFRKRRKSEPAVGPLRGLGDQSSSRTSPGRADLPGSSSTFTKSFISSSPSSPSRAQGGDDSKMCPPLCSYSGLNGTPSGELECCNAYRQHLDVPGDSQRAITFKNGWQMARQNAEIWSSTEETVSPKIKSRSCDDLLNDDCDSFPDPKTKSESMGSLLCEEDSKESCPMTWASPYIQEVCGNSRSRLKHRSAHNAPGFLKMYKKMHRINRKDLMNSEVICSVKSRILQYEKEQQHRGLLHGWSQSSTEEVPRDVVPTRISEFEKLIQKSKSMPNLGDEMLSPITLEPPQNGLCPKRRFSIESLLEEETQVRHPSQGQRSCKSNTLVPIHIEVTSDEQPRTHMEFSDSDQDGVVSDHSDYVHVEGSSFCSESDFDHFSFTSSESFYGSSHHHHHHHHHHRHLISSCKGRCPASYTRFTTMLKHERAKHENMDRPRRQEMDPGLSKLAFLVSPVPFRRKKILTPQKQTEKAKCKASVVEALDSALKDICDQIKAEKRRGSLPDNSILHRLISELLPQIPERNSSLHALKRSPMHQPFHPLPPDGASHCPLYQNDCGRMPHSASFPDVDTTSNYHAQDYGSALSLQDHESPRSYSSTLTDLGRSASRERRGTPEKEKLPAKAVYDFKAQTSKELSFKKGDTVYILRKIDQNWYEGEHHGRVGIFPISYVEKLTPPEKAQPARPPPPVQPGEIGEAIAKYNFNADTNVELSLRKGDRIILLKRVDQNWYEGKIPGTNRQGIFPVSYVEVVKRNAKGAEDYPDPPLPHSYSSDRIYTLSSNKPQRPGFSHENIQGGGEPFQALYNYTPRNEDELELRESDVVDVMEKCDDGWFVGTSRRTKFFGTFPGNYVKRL
Assay: affinity purification with mass spectrometry; left ventricular tissue of healthy (sham) and TAB mouse hearts lysed; immunoprecipitation with SORBS2 antibody on Dynabeads Protein G against isotype control; SDS-PAGE, digestion, mass spectrometry; n = 6 per condition

- binding: binds
B1: Zyxin (protein, UniProt Q62523 1-564)
chain: MAAPRPPPAISVSVSAPAFYAPQKKFAPVVAPKPKVNPFRPGDSEPPVAAGAQRAQMGRVGEIPPPPPEDFPLPPPPLIGEGDDSEGALGGAFPPPPPPMIEEPFPPAPLEEDIFPSPPPPLEEEGGPEAPTQLPPQPREKVCSIDLEIDSLSSLLDDMTKNDPFKARVSSGYVPPPVATPFVPKPSTKPAPGGTAPLPPWKTPSSSQPPPQPQAKPQVQLHVQPQAKPHVQPQPVSSANTQPRGPLSQAPTPAPKFAPVAPKFTPVVSKFSPGAPSGPGPQPNQKMVPPDAPSSVSTGSPQPPSFTYAQQKEKPLVQEKQHPQPPPAQNQNQVRSPGGPGPLTLKEVEELEQLTQQLMQDMEHPQRQSVAVNESCGKCNQPLARAQPAVRALGQLFHITCFTCHQCQQQLQGQQFYSLEGAPYCEGCYTDTLEKCNTCGQPITDRMLRATGKAYHPQCFTCVVCACPLEGTSFIVDQANQPHCVPDYHKQYAPRCSVCSEPIMPEPGRDETVRVVALDKNFHMKCYKCEDCGKPLSIEADDNGCFPLDGHVLCRKCHSARAQT
